Assay results reported in the supplement of paper PMC7666118.
The list shows a part of the results.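 The calls were made as follows: active = dose-dependent thermal stabilisation significant by F-test of dose-response against flat model at 10% FDR; inactive = not significant.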

Protein sequences, listed by entry. Tags and fused reporters are not part of them. Lines headed by an entry give the natural chain unless they say otherwise; changes in a name come on top.
UniProt Q9Y2V2: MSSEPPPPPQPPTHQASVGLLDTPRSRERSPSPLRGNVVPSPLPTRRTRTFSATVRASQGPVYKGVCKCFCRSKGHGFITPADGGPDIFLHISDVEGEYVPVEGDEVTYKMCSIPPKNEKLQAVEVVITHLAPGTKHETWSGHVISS
UniProt Q9P1Z2: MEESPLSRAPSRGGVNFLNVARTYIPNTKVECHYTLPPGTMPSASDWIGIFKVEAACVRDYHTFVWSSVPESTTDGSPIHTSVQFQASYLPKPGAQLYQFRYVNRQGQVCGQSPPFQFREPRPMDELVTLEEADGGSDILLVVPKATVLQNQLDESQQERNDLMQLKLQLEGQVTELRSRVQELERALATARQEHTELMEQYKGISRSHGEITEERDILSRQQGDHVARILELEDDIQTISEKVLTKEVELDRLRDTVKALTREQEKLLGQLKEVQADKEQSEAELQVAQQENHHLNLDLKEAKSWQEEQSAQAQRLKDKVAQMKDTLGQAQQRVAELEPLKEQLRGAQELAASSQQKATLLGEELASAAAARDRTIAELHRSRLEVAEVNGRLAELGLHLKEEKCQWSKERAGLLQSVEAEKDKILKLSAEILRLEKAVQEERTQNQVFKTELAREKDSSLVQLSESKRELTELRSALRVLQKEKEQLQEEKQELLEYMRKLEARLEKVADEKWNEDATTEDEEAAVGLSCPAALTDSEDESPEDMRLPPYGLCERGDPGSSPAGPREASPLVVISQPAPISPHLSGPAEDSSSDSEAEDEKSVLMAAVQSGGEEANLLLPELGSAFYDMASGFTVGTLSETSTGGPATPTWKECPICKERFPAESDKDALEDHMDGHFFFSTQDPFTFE
UniProt Q9NXR7, whole entry: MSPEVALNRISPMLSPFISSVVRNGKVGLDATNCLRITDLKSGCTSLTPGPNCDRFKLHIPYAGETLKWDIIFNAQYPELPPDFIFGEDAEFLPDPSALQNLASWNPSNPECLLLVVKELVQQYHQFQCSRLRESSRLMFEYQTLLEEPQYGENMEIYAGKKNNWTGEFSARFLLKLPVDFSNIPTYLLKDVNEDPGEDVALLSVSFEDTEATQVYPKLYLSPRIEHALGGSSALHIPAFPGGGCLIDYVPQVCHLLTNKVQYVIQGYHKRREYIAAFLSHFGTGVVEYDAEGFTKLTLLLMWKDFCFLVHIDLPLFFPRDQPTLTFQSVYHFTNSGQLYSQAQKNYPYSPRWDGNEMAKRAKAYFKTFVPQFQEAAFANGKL
UniProt Q9Y3E2: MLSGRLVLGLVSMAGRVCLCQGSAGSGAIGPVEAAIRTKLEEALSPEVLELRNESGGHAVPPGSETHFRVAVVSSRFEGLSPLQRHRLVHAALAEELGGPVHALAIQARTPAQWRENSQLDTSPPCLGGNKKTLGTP
UniProt Q9H6S1, whole entry: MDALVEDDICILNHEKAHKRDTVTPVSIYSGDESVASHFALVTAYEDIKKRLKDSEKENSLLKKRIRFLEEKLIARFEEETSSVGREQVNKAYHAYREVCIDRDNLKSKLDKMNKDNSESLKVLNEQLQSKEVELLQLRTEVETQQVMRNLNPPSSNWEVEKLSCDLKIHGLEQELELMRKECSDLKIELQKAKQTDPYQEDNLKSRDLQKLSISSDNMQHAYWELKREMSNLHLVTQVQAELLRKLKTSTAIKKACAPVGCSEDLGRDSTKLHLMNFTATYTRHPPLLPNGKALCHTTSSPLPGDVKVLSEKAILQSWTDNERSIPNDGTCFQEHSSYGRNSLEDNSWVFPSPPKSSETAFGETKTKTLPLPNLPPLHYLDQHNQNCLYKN
UniProt O95861: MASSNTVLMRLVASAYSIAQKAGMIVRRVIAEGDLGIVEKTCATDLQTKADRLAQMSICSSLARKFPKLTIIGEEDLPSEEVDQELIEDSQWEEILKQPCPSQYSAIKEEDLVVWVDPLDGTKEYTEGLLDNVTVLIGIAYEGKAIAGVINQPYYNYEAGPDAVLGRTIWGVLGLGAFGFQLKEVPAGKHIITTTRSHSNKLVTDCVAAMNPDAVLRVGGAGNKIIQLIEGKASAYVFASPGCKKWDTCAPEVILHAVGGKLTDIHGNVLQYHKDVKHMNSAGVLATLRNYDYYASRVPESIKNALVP
UniProt Q9Y4P1: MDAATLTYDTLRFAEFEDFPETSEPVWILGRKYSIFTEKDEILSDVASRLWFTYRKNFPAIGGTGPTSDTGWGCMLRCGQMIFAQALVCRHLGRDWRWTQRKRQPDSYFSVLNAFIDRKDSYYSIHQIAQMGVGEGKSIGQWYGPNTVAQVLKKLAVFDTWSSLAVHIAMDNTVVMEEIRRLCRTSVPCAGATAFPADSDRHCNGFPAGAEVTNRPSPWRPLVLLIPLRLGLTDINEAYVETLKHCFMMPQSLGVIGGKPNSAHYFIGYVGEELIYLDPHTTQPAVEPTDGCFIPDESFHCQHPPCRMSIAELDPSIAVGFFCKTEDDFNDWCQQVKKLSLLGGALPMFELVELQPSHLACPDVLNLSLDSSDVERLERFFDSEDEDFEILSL
UniProt Q9HAS0: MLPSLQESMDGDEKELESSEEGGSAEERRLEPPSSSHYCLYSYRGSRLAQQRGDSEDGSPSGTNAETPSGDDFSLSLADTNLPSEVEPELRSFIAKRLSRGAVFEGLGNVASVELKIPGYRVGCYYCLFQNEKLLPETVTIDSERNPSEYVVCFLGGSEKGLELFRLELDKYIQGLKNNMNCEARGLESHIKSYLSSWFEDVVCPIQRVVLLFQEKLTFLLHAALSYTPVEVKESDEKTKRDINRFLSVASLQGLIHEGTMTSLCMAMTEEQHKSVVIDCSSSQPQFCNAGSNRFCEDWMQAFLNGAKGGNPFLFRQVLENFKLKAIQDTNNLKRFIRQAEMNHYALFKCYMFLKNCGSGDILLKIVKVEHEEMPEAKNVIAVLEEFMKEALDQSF
UniProt Q8N9N2: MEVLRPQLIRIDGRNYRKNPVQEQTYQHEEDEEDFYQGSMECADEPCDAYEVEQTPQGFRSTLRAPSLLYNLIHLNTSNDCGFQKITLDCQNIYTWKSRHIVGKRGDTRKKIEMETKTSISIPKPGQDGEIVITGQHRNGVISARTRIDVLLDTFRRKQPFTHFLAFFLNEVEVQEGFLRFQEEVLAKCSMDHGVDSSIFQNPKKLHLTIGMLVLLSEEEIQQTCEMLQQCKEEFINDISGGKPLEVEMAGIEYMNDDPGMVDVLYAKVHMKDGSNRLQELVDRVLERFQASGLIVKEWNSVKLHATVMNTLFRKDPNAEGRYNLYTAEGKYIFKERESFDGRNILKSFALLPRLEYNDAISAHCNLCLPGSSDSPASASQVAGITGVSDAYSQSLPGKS
UniProt Q9HB07: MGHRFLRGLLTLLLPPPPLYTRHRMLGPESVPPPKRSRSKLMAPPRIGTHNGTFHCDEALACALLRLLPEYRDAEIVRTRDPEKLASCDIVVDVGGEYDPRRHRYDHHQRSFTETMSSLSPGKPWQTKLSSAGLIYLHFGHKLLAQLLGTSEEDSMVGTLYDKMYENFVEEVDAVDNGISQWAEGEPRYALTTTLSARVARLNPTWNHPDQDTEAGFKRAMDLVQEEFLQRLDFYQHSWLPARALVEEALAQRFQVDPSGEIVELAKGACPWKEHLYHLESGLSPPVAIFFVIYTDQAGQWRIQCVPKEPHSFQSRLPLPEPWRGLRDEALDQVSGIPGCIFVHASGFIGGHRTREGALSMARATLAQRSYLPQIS
UniProt Q92888: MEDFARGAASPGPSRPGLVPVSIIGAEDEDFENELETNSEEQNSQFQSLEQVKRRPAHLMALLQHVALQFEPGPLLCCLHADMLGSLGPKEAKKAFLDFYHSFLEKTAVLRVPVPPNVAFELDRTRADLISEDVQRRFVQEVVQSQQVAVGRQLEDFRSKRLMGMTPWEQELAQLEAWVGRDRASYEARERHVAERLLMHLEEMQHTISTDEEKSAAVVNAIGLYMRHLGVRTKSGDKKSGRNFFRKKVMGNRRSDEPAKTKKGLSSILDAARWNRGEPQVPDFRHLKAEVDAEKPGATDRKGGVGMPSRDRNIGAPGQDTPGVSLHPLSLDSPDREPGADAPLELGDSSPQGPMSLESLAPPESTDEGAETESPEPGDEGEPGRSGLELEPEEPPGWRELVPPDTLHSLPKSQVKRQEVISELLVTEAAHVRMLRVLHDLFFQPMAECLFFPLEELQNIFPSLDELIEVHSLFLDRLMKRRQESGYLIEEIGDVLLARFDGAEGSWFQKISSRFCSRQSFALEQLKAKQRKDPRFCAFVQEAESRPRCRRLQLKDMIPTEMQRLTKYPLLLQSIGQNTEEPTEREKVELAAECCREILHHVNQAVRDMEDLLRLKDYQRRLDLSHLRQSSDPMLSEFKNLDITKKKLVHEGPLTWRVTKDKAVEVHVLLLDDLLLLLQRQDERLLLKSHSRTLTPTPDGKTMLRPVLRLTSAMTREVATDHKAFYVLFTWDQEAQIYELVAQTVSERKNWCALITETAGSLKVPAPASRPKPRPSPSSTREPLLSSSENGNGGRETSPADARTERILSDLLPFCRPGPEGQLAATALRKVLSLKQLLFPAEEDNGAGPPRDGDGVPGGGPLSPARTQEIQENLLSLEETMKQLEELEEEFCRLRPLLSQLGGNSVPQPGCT
UniProt P36404: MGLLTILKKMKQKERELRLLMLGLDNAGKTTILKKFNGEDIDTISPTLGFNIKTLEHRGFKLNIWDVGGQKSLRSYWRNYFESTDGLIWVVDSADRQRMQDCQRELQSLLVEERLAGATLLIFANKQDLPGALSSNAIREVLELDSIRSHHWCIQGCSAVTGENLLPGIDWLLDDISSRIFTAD
UniProt P30049: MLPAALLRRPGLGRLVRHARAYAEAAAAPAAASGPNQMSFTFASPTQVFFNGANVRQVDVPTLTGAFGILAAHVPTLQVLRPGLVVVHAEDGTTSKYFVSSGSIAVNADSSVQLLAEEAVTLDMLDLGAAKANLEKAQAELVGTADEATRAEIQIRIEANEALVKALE
UniProt P52566: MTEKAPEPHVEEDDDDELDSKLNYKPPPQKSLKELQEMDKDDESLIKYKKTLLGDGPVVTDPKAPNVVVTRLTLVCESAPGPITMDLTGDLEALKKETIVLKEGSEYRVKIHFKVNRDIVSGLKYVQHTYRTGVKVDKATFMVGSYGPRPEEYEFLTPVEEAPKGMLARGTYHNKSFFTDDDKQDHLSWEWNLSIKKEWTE
UniProt Q8IU85: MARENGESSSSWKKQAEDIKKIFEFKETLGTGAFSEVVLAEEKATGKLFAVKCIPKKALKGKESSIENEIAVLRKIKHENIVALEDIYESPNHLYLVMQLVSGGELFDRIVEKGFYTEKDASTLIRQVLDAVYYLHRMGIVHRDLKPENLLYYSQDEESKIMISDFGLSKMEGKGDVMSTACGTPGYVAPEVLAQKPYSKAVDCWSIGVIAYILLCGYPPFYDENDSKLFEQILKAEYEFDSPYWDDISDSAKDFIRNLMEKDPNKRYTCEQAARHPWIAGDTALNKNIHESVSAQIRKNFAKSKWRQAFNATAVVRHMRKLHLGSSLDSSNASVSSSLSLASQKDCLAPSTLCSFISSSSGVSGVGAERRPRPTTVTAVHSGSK
UniProt Q7Z7L8: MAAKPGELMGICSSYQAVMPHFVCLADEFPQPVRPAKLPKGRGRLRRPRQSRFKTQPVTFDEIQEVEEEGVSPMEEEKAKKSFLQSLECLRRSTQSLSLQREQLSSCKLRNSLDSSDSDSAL

compound: Nc1nc2c(ncn2[C@@H]2O[C@H](COP(=O)(O)OP(=O)(O)OP(=O)(O)O)[C@@H](O)[C@H]2O)c(=O)[nH]1; assay: dose-dependent thermal stabilisation call (2D-TPP, DLPTP, 10% FDR) (binary (1 = stabilised)); higher = stabilised by the compound; details: system: Jurkat gel-filtered lysate; concentration range 1-500 µM

Target	dose-dependent thermal stabilisation call
CARHSP1 (UniProt Q9Y2V2)	inactive: 0
BAG4 (UniProt O95429)	inactive: 0
C9orf64 (UniProt Q5T6V5)	inactive: 0
CALCOCO1 (UniProt Q9P1Z2)	inactive: 0
BAG5 (UniProt Q9UL15)	inactive: 0
ARPC1B (UniProt O15143)	active: 1
ARPC4 (UniProt P59998)	active: 1
ATN1 (UniProt P54259)	inactive: 0
ARHGEF6 (UniProt Q15052)	inactive: 0
BABAM2 (UniProt Q9NXR7)	inactive: 0
BOLA1 (UniProt Q9Y3E2)	inactive: 0
C12orf43 (UniProt Q96C57)	inactive: 0
ARID1A (UniProt O14497)	inactive: 0
AZI2 (UniProt Q9H6S1)	inactive: 0
ATP6V1G1 (UniProt O75348)	inactive: 0
ATG7 (UniProt O95352)	active: 1
BPNT1 (UniProt O95861)	inactive: 0
ATXN7L3 (UniProt Q14CW9)	inactive: 0

Retrieved one by one from the list above, three records:
Target	dose-dependent thermal stabilisation call
BPNT1 (UniProt O95861)	inactive: 0
C9orf64 (UniProt Q5T6V5)	inactive: 0
AZI2 (UniProt Q9H6S1)	inactive: 0

Next part:

Target	dose-dependent thermal stabilisation call
ATG4B (UniProt Q9Y4P1)	inactive: 0
C17orf75 (UniProt Q9HAS0)	inactive: 0
ASCC1 (UniProt Q8N9N2)	inactive: 0
C12orf10 (UniProt Q9HB07)	inactive: 0
BZW2 (UniProt Q9Y6E2)	inactive: 0
ARHGEF1 (UniProt Q92888)	inactive: 0
ARL2 (UniProt P36404)	active: 1
C16orf62 (UniProt Q7Z3J2)	active: 1
AVEN (UniProt Q9NQS1)	inactive: 0
BICD2 (UniProt Q8TD16)	inactive: 0
ASRGL1 (UniProt Q7L266)	inactive: 0
ATP5D (UniProt P30049)	inactive: 0
ARHGDIB (UniProt P52566)	inactive: 0
BBX (UniProt Q8WY36)	inactive: 0
CAMK1D (UniProt Q8IU85)	inactive: 0
BNIP1 (UniProt Q12981)	inactive: 0
C11orf96 (UniProt Q7Z7L8)	inactive: 0
BRCA2 (UniProt P51587)	inactive: 0
